The list is a part of this screen's results and no random one: it is rich in T/C values a quarter to a half above the control, in often repeated tests (any T/C) and in doses without a T/C. Other doses and runs of a compound stand elsewhere. T/C: endpoint of the treated group in % of that of the vehicle group. Some doses have a count of surviving animals in place of a T/C: the source holds a T/C of zero for them, seemingly a mark for toxic or unscored doses. Some survivor counts are full or nearly so, which does not show that the dose was tolerated: survival well below the control is almost never listed, so the zero probably covers shortened survival too. Survivors were counted at the toxicity check, usually on the fifth day, unless a day is given; later deaths do not show. Schedule codes are those of the source, taken here to give the interval after Q, in days (D) or hours (H), and the number of doses after X. Some molecules as drawn cover several salts, stereoisomers or complexes of the source; a dose is that of the sample tested. Some doses were run more than once; the results are listed from low to high. For survival time, the PubChem record calls one and a half times the control and up active, and a quarter to a half above the control has no call in these data; cut-offs in other NCI protocols can differ. Additions like (4×) say how often a value occurs here.
Test system: L1210 leukemia ip in BDF1 mice, survival T/C
Assay: NCI In Vivo Anticancer Drug Screen. Data for tumor model L1210 Leukemia (intraperitoneal) in B6D2F1 (BDF1) mice
Details: T/C endpoint: mean survival time, higher T/C = longer survival
[1] = dose: 400.0 mg/kg/injection, schedule: Q01DX001 (ip), vehicle: carboxymethylcellulose (CMC)
[2] = dose: 400.0 mg/kg/injection, schedule: Q01DX009 (ip), vehicle: Klucel (hydroxypropylcellulose) (HPC)
[3] = dose: 300.0 mg/kg/injection, schedule: Q01DX001 (ip), vehicle: carboxymethylcellulose (CMC)
[4] = dose: 400.0 mg/kg/injection, schedule: Q04DX003 (ip), vehicle: Klucel (hydroxypropylcellulose) (HPC)
[5] = dose: 200.0 mg/kg/injection, schedule: Q01DX001 (ip), vehicle: saline
[6] = dose: 400.0 mg/kg/injection, schedule: Q01DX001 (ip), vehicle: saline
[7] = dose: 200.0 mg/kg/injection, schedule: Q04DX002 (ip), vehicle: Klucel (hydroxypropylcellulose) (HPC)
[8] = dose: 400.0 mg/kg/injection, schedule: Q04DX002 (ip), vehicle: Klucel (hydroxypropylcellulose) (HPC)
[9] = dose: 300.0 mg/kg/injection, schedule: Q04DX003 (ip), vehicle: saline
[10] = dose: 200.0 mg/kg/injection, schedule: Q04DX003 (ip), vehicle: saline
[11] = dose: 400.0 mg/kg/injection, schedule: Q04DX003 (ip), vehicle: saline

CCC[P+](c1ccccc1)(c1ccccc1)c1ccccc1
T/C (dose: 12.5 mg/kg/injection, schedule: Q01DX009 (ip), vehicle: saline with Tween-80): 128 % of control (2×) | survivor count (dose: 50.0 mg/kg/injection, schedule: Q04DX003 (ip), vehicle: saline): 0 of 6 | survivor count (dose: 100.0 mg/kg/injection, schedule: Q01DX001 (ip), vehicle: carboxymethylcellulose (CMC)): 0 of 6 and 2 of 6 | survivor count (dose: 200.0 mg/kg/injection, schedule: Q01DX001 (ip), vehicle: carboxymethylcellulose (CMC)): 0 of 6 | survivor count [1]: 0 of 6

CN(C)C1CCCCCCC1
survivor count (dose: 150.0 mg/kg/injection, schedule: Q01DX001 (ip), vehicle: acetone): 0 of 6 | survivor count (dose: 300.0 mg/kg/injection, schedule: Q01DX001 (ip), vehicle: acetone): 0 of 6

O=C(O)c1c(Cl)c(Cl)c(Cl)c(Cl)c1C(=O)Nc1cccc(C(F)(F)F)c1
survivor count [2]: 3 of 6

O=C(O)C1C2CCC(O2)C1C(=O)O (stereo not given)
survivor count [1]: 1 of 4

CC(Cl)C(=O)OC(C)(C)Cl (stereo not given)
survivor count [3]: 1 of 6

O=P(Cc1ccccc1)(C(O)c1ccccc1)C(O)c1ccccc1 (stereo not given)
survivor count [4]: 6 of 6

CN=C(N)N(C)/N=C/c1ccccc1
survivor count (dose: 175.0 mg/kg/injection, schedule: Q04DX003 (ip), vehicle: Klucel (hydroxypropylcellulose) (HPC)): 0 of 6 | survivor count (dose: 350.0 mg/kg/injection, schedule: Q04DX003 (ip), vehicle: Klucel (hydroxypropylcellulose) (HPC)): 0 of 6

O=NN(CCCl)C(=O)Nc1ccc(S(=O)(=O)F)cc1
T/C (dose: 4.0 mg/kg/injection, schedule: Q01DX001 (ip), vehicle: carboxymethylcellulose (CMC)): 125 % of control | T/C (dose: 8.0 mg/kg/injection, schedule: Q01DX001 (ip), vehicle: carboxymethylcellulose (CMC)): 130 % of control | T/C (dose: 16.0 mg/kg/injection, schedule: Q01DX001 (ip), vehicle: carboxymethylcellulose (CMC)): 137 % of control | T/C (dose: 31.0 mg/kg/injection, schedule: Q01DX001 (ip), vehicle: carboxymethylcellulose (CMC)): 131 % of control | T/C (dose: 62.0 mg/kg/injection, schedule: Q01DX001 (ip), vehicle: carboxymethylcellulose (CMC)): 136 % of control | T/C (dose: 125.0 mg/kg/injection, schedule: Q01DX001 (ip), vehicle: carboxymethylcellulose (CMC)): 143 % of control | T/C (dose: 250.0 mg/kg/injection, schedule: Q01DX001 (ip), vehicle: carboxymethylcellulose (CMC)): 125 % of control

Oc1ccc(Br)cc1/C=N/c1nc(-c2ccccc2)cs1.Oc1ccc(Br)cc1/C=N/c1nc(-c2ccccc2)cs1.[Zn]
survivor count [5]: 3 of 3 | survivor count [6]: 3 of 3

Cc1cnc(NN)nc1-c1ccccc1O
survivor count [7]: 1 of 3 | survivor count [8]: 0 of 3

CC1(C)OC(=O)C2CCCCC21 (stereo not given)
survivor count (dose: 100.0 mg/kg/injection, schedule: Q01DX009 (ip), vehicle: saline): 0 of 6 | survivor count [6]: 1 of 6

ClC1CCCCCCCCC1
survivor count [5]: 4 of 4

COc1ccc2c(c1)C1(C)CCN(CCc3ccccc3)C(C2)C1C (stereo not given)
survivor count [3]: 2 of 6

CC1(c2ccc3ccccc3c2)OC(=O)c2ccccc21 (stereo not given)
survivor count (dose: 100.0 mg/kg/injection, schedule: Q01DX009 (ip), vehicle: saline with Tween-80): 6 of 6

O=C(O)CCSc1ccccc1
survivor count (dose: 150.0 mg/kg/injection, schedule: Q04DX003 (ip), vehicle: saline): 3 of 6 | survivor count [9]: 0 of 6

Cc1ccc(Cl)cc1NC(=O)NCCCl
survivor count [4]: 3 of 6

CCCCCCCCS.[Ni]
survivor count [10]: 1 of 6 | survivor count [11]: 0 of 6

C[N+](C)(C)c1ncncn1
survivor count (dose: 100.0 mg/kg/injection, schedule: Q04DX003 (ip), vehicle: saline): 1 of 6 | survivor count [10]: 0 of 6 | survivor count [11]: 0 of 6

CCN(CC)CCCCNc1ccc(NCCCCN(CC)CC)c2c1C(=O)c1ccccc1C2=O
survivor count (dose: 100.0 mg/kg/injection, schedule: Q04DX002 (ip), vehicle: alcohol): 3 of 3 | survivor count (dose: 200.0 mg/kg/injection, schedule: Q04DX002 (ip), vehicle: alcohol): 3 of 3 | survivor count (dose: 400.0 mg/kg/injection, schedule: Q04DX002 (ip), vehicle: alcohol): 2 of 3

CCC[CH2][Sn]([Cl])([Cl])[CH2]CCC.c1ccncc1
survivor count (dose: 25.0 mg/kg/injection, schedule: Q01DX009 (ip), vehicle: Klucel (hydroxypropylcellulose) (HPC)): 0 of 3 | survivor count (dose: 50.0 mg/kg/injection, schedule: Q01DX009 (ip), vehicle: Klucel (hydroxypropylcellulose) (HPC)): 0 of 3 | survivor count (dose: 50.0 mg/kg/injection, schedule: Q04DX002 (ip), vehicle: Klucel (hydroxypropylcellulose) (HPC)): 3 of 3 | survivor count (dose: 100.0 mg/kg/injection, schedule: Q04DX002 (ip), vehicle: Klucel (hydroxypropylcellulose) (HPC)): 0 of 3 | survivor count [7]: 1 of 3 | survivor count [8]: 1 of 3

CCOc1ccc(/C=C2\C=Nc3ccccc32)cc1
survivor count [2]: 6 of 6

CC(C)(C)c1cc(CN2CCCCC2)cc(C(C)(C)C)c1O
survivor count (dose: 100.0 mg/kg/injection, schedule: Q04DX003 (ip), vehicle: Klucel (hydroxypropylcellulose) (HPC)): 2 of 6 | survivor count (dose: 200.0 mg/kg/injection, schedule: Q04DX003 (ip), vehicle: Klucel (hydroxypropylcellulose) (HPC)): 0 of 6 | survivor count [4]: 0 of 6

Cc1ncc(C#N)n1C(C)c1ccccc1 (stereo not given)
survivor count (dose: 400.0 mg/kg/injection, schedule: Q01DX001 (ip), vehicle: Klucel (hydroxypropylcellulose) (HPC)): 1 of 3

CCC1N2CCc3cc(OC)c(OC)cc3C2CCC1(O)Cc1ccccn1 (stereo not given)
survivor count (dose: 400.0 mg/kg/injection, schedule: Q04DX003 (ip), vehicle: carboxymethylcellulose (CMC)): 0 of 6

CCCC(CCC)NCC(C)O (stereo not given)
survivor count (dose: 150.0 mg/kg/injection, schedule: Q01DX001 (ip), vehicle: acid diluted with saline): 0 of 6 | survivor count (dose: 300.0 mg/kg/injection, schedule: Q01DX001 (ip), vehicle: acid diluted with saline): 0 of 6

COc1cccc(NC(=O)N(CCCl)N=O)c1
T/C (dose: 9.0 mg/kg/injection, schedule: Q01DX001 (ip), vehicle: carboxymethylcellulose (CMC)): 133 % of control | survivor count (dose: 187.0 mg/kg/injection, schedule: Q01DX001 (ip), vehicle: carboxymethylcellulose (CMC)): 5 of 6 | survivor count (dose: 375.0 mg/kg/injection, schedule: Q01DX001 (ip), vehicle: carboxymethylcellulose (CMC)): 0 of 6 | survivor count (dose: 500.0 mg/kg/injection, schedule: Q01DX001 (ip), vehicle: carboxymethylcellulose (CMC)): 1 of 6 | survivor count (dose: 750.0 mg/kg/injection, schedule: Q01DX001 (ip), vehicle: carboxymethylcellulose (CMC)): 0 of 6

CC(C#N)Oc1cccc2ccccc12 (stereo not given)
survivor count (dose: 400.0 mg/kg/injection, schedule: Q01DX009 (ip), vehicle: DMSO): 3 of 6

COC(Cl)C(Cl)(Cl)Cl (stereo not given)
survivor count [11]: 2 of 6

C(=Nc1ccccc1)c1ccccc1
survivor count (dose: 50.0 mg/kg/injection, schedule: Q01DX009 (ip), vehicle: carboxymethylcellulose (CMC)): 0 of 6 | survivor count (dose: 100.0 mg/kg/injection, schedule: Q01DX009 (ip), vehicle: carboxymethylcellulose (CMC)): 0 of 6 | survivor count (dose: 200.0 mg/kg/injection, schedule: Q01DX009 (ip), vehicle: carboxymethylcellulose (CMC)): 0 of 6 | survivor count (dose: 400.0 mg/kg/injection, schedule: Q01DX009 (ip), vehicle: carboxymethylcellulose (CMC)): 1 of 6 | survivor count (dose: 400.0 mg/kg/injection, schedule: Q01DX009 (ip), vehicle: saline): 0 of 6 | survivor count [11]: 6 of 6

CN(C)C(=O)c1cc(C(=O)N(C)C)c[n+](Cc2c(Cl)cccc2Cl)c1
survivor count [9]: 6 of 6

CC1CCN(C(=O)CC#N)CC1
survivor count (dose: 200.0 mg/kg/injection, schedule: Q01DX009 (ip), vehicle: saline): 1 of 3 | survivor count (dose: 400.0 mg/kg/injection, schedule: Q04DX002 (ip), vehicle: saline): 1 of 3

— PubChem BioAssay AID248 (DTP/NCI, 2004)
